Data published in the supplement of paper PMC12067093, “Discovery and optimisation of a covalent ligand for TRIM25 and its application to targeted protein ubiquitination” (Chemical Science, 2025).
The other results are listed elsewhere or left out.

By UniProt entry, the sequences of proteins in these tests, tags left out. Where a name states a change or a piece, a line headed by the entry shows the natural chain unless it says otherwise.
UniProt O43566: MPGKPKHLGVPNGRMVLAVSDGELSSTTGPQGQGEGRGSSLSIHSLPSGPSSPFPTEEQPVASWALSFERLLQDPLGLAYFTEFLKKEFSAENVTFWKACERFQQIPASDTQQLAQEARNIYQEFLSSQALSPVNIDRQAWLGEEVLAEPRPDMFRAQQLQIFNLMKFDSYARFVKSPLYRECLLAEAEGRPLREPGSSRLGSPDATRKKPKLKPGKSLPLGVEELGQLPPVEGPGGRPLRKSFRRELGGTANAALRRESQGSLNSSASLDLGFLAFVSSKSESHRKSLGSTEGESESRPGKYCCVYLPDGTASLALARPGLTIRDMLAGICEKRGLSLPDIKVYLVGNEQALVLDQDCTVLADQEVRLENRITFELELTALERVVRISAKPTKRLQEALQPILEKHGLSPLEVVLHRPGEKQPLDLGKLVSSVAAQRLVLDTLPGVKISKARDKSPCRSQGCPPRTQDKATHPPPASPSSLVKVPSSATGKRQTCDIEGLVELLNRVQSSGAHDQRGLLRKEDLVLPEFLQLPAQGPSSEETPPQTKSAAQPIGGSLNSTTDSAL
UniProt P51606: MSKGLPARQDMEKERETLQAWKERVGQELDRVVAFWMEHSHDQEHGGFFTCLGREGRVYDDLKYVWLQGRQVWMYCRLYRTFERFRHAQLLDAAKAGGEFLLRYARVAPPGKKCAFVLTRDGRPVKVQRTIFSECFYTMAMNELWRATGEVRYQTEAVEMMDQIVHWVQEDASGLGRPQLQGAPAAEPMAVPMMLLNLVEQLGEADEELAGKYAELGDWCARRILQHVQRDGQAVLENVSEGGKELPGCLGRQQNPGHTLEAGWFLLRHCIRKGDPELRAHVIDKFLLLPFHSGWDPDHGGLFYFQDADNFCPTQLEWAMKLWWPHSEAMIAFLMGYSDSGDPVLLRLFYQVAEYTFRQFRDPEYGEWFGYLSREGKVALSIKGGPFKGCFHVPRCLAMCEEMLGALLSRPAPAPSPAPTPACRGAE
UniProt Q9Y3B8: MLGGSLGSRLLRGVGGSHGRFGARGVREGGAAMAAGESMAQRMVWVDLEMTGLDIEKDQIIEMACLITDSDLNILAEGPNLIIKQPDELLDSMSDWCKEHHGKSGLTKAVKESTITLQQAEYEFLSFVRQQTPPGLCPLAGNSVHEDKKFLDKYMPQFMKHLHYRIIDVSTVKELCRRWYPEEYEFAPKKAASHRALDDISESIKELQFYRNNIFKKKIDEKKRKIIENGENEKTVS
UniProt P46063: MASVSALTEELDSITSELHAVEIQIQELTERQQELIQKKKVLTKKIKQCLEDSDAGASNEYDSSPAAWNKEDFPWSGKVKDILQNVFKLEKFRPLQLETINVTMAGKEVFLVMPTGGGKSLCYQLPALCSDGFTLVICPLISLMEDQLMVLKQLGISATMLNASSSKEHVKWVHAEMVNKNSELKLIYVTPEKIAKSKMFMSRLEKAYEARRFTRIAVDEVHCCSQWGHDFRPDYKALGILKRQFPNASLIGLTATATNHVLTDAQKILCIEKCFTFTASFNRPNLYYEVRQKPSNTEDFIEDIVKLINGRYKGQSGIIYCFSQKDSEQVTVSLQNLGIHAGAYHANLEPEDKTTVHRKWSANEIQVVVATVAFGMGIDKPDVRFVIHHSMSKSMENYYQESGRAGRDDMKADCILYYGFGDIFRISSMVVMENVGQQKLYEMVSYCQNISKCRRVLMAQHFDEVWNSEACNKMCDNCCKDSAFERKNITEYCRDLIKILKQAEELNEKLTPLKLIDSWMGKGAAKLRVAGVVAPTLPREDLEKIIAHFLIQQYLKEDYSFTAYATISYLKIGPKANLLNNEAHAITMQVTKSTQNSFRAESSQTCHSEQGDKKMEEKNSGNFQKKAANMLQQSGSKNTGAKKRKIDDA
UniProt Q9Y508: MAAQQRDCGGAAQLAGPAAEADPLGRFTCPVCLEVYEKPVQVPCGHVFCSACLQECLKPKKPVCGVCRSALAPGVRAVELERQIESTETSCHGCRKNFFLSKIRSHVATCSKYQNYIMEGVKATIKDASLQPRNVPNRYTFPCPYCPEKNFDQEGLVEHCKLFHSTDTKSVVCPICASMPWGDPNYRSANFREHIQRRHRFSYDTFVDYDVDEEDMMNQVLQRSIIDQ
UniProt Q6PCD5: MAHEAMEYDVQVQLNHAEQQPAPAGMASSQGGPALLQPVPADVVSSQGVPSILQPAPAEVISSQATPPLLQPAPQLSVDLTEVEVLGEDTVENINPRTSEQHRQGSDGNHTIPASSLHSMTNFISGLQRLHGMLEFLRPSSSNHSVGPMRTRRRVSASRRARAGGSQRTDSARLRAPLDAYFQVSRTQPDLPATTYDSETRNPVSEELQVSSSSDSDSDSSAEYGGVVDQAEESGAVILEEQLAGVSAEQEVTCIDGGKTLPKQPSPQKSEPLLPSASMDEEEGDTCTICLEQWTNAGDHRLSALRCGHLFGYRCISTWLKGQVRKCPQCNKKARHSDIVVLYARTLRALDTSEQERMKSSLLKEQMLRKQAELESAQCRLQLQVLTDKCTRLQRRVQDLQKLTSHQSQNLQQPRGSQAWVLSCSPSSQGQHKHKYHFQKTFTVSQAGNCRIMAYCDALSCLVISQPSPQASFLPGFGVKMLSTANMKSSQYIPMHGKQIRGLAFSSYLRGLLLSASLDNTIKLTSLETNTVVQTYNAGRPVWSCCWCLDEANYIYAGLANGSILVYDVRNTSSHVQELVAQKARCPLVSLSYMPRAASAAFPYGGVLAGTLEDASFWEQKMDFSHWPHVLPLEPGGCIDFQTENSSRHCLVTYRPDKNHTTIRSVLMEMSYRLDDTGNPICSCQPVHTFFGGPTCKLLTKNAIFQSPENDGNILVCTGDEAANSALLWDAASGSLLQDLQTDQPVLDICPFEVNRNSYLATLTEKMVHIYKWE
UniProt Q5UIP0: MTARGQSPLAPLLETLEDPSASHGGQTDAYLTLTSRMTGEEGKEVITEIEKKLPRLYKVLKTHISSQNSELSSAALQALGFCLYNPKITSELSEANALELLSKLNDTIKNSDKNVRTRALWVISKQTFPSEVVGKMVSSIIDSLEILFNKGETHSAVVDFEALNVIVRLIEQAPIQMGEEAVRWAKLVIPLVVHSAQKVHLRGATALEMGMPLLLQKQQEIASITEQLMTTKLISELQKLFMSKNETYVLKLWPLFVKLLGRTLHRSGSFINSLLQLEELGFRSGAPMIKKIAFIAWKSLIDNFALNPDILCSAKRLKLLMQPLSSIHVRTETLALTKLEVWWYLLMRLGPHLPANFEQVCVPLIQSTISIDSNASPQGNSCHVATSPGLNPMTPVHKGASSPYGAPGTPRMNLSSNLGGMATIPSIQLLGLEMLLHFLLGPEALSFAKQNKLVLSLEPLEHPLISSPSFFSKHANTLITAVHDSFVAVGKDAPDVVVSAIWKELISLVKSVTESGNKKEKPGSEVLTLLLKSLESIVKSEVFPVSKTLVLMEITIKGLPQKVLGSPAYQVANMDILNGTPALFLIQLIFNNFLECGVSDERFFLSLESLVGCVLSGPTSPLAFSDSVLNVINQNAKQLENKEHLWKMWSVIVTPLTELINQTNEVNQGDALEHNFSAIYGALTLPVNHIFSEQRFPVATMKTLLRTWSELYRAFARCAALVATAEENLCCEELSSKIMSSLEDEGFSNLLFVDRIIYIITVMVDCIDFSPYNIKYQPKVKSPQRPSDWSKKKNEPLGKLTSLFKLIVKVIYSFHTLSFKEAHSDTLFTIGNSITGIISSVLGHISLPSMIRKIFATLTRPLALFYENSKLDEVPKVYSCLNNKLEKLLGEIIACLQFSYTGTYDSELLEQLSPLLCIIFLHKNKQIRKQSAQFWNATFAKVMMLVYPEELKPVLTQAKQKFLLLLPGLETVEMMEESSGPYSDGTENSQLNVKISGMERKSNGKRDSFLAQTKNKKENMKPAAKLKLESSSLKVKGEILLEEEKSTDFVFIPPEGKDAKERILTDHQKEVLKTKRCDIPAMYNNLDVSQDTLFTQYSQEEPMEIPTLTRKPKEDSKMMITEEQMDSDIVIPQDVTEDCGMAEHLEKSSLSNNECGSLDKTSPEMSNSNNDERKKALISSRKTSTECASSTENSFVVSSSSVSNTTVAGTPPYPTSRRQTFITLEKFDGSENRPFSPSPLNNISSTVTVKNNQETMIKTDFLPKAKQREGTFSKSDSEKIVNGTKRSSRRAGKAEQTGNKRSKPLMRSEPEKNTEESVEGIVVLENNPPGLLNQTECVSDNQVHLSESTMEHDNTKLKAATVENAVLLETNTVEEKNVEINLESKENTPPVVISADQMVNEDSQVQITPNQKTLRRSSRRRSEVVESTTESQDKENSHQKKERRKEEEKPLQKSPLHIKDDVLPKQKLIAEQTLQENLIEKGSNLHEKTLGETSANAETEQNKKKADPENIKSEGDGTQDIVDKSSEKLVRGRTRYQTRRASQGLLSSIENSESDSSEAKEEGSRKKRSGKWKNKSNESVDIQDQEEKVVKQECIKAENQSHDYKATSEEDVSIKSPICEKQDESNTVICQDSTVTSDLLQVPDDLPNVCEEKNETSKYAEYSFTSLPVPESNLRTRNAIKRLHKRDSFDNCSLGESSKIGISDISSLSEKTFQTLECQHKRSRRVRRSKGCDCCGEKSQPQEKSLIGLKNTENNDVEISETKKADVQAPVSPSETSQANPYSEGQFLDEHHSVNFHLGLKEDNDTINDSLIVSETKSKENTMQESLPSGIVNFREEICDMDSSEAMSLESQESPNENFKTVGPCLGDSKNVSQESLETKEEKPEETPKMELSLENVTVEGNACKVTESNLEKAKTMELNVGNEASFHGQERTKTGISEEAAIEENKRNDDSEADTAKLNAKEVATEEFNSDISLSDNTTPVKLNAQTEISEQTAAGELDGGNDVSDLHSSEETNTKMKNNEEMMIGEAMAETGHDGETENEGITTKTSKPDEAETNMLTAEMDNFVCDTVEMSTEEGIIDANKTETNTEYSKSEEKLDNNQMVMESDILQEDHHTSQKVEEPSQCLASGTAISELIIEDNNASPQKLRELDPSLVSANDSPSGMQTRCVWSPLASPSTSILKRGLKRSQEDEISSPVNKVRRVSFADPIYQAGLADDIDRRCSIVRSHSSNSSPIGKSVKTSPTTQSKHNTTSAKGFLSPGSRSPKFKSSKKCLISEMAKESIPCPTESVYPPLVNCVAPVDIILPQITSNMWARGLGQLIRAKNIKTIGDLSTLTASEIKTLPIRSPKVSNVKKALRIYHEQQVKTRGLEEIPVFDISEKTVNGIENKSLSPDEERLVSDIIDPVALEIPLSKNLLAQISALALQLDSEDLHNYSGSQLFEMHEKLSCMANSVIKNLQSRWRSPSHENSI
UniProt Q9P260: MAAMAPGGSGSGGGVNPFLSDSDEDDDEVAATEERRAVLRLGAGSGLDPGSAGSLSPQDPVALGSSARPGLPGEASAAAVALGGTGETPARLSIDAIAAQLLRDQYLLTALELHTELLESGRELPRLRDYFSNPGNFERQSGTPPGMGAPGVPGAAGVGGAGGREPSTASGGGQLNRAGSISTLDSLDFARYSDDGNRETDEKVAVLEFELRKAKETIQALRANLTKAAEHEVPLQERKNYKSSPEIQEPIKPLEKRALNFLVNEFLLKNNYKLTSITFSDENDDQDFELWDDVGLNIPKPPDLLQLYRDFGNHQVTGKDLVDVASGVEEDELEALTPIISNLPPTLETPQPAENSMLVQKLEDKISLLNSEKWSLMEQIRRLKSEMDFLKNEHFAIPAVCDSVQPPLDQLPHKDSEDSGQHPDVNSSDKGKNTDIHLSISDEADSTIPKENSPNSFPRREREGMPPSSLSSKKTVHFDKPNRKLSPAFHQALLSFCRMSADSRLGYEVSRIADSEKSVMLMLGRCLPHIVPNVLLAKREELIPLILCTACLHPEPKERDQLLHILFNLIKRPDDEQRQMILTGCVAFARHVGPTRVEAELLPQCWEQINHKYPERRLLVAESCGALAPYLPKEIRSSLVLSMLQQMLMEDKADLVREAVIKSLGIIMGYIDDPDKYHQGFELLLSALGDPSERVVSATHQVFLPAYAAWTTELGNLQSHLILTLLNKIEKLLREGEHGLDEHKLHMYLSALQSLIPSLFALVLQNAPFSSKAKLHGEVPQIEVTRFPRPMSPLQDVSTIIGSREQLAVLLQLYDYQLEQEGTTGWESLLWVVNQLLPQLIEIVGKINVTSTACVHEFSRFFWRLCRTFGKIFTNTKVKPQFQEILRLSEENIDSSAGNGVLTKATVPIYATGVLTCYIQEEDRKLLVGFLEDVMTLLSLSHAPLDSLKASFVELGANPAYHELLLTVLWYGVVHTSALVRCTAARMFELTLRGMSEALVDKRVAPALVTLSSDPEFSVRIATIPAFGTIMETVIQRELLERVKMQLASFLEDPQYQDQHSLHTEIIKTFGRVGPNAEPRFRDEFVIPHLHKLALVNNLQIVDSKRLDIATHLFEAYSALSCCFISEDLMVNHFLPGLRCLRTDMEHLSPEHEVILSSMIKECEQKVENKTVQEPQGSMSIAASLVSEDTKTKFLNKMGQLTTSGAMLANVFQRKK

Compound: CC1Cc2ccccc2N1C(=O)C1CCCN(C1)C(=O)CCl (mixture of isomers) [TRIM25 ligand 11 (diastereomer mixture)]
Assay: probe-labelled cysteine peptide fold change vs DMSO (competition) (log2 fold change); higher = less target engagement (more negative = stronger competition)
Conditions: THP-1, incubation time: 4 h
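Further: competitive chemoproteomic profiling in live THP-1 cells with an iodoacetamide desthiobiotin (IA-DTB) probe, comparing probe-labelled peptide intensities in compound-treated cells against DMSO-treated controls.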

Target: RGL2_O15211_284_DRPGHSHLCPSVR (UniProt O15211)
- probe-labelled cysteine peptide fold change (10 µM): 0.172
- probe-labelled cysteine peptide fold change (50 µM): 0.0684

Target: RGS14_O43566_183_ECLLAEAEGR (UniProt O43566)
- probe-labelled cysteine peptide fold change (10 µM): 0.122
- probe-labelled cysteine peptide fold change (50 µM): 0.152

Target: RENBP_P51606_76_QVWMYCR (UniProt P51606)
- probe-labelled cysteine peptide fold change (10 µM): 0.0147
- probe-labelled cysteine peptide fold change (50 µM): 0.192

Target: REXO2_Q9Y3B8_137_QQTPPGLCPLAGNSVHEDKK (UniProt Q9Y3B8)
- probe-labelled cysteine peptide fold change (10 µM): -0.0253
- probe-labelled cysteine peptide fold change (50 µM): -0.0731

Target: RGP1_Q92546_293_HQESCLHTTR (UniProt Q92546)
- probe-labelled cysteine peptide fold change (10 µM): 0.00599
- probe-labelled cysteine peptide fold change (50 µM): -0.0637

Target: RNASEH2A_O75792_52_GPVLGPMVYAICYCPLPR (UniProt O75792)
- probe-labelled cysteine peptide fold change (10 µM): -0.07
- probe-labelled cysteine peptide fold change (50 µM): 0.0588

Target: REXO2_Q9Y3B8_137_QQTPPGLCPLAGNSVHEDK (UniProt Q9Y3B8)
- probe-labelled cysteine peptide fold change (10 µM): 0.167
- probe-labelled cysteine peptide fold change (50 µM): -0.0434

Target: RHOG_P84095_102_WHPEVCHHCPDVPILLVGTK (UniProt P84095)
- probe-labelled cysteine peptide fold change (10 µM): 0.0121
- probe-labelled cysteine peptide fold change (50 µM): -0.0288

Target: RMND5A_Q9H871_109_NFDSDISSVGIDGCWQADSQR (UniProt Q9H871)
- probe-labelled cysteine peptide fold change (10 µM): 0.0243
- probe-labelled cysteine peptide fold change (50 µM): 0.0744

Target: RECQL_P46063_471_VLMAQHFDEVWNSEACNK (UniProt P46063)
- probe-labelled cysteine peptide fold change (10 µM): 0.0846
- probe-labelled cysteine peptide fold change (50 µM): -0.0567

Target: RNF114_Q9Y508_64_KPVCGVCR (UniProt Q9Y508)
- probe-labelled cysteine peptide fold change (10 µM): -0.057
- probe-labelled cysteine peptide fold change (50 µM): -0.0367

Target: RETSAT_Q6NUM9_370_CLPGVK (UniProt Q6NUM9)
- probe-labelled cysteine peptide fold change (10 µM): -0.0713
- probe-labelled cysteine peptide fold change (50 µM): 0.0318

Target: RFWD3_Q6PCD5_638_MDFSHWPHVLPLEPGGCIDFQTENSSR (UniProt Q6PCD5)
- probe-labelled cysteine peptide fold change (10 µM): -0.386
- probe-labelled cysteine peptide fold change (50 µM): -0.214

Target: RELA_Q04206_105_DGFYEAELCPDR (UniProt Q04206)
- probe-labelled cysteine peptide fold change (10 µM): -0.0141
- probe-labelled cysteine peptide fold change (50 µM): -0.143

Target: RECQL_P46063_49_QCLEDSDAGASNEYDSSPAAWNK (UniProt P46063)
- probe-labelled cysteine peptide fold change (10 µM): 0.11
- probe-labelled cysteine peptide fold change (50 µM): 0.0687

Target: RENBP_P51606_220_YAELGDWCAR (UniProt P51606)
- probe-labelled cysteine peptide fold change (10 µM): 0.133
- probe-labelled cysteine peptide fold change (50 µM): 0.171

Target: RHOA_P61586_159_IGAFGYMECSAK (UniProt P61586)
- probe-labelled cysteine peptide fold change (10 µM): -0.0166
- probe-labelled cysteine peptide fold change (50 µM): -0.0933

Target: RIF1_Q5UIP0_1865_TVGPCLGDSK (UniProt Q5UIP0)
- probe-labelled cysteine peptide fold change (10 µM): -0.0622
- probe-labelled cysteine peptide fold change (50 µM): -0.164

Target: RING1_Q06587_69_FCSDCIVTALR (UniProt Q06587)
- probe-labelled cysteine peptide fold change (10 µM): 0.00698
- probe-labelled cysteine peptide fold change (50 µM): -0.00266

Target: RLF_Q13129_1300_GNLCYILNK (UniProt Q13129)
- probe-labelled cysteine peptide fold change (10 µM): -0.0662
- probe-labelled cysteine peptide fold change (50 µM): -0.126

Target: RIOK3_O14730_287_VIPTECAIK (UniProt O14730)
- probe-labelled cysteine peptide fold change (10 µM): -0.0379
- probe-labelled cysteine peptide fold change (50 µM): -0.0226

Target: RIPOR1_Q6ZS17_196_EYTESMCLLESELEAQLGEFHLR (UniProt Q6ZS17)
- probe-labelled cysteine peptide fold change (10 µM): 0.0399
- probe-labelled cysteine peptide fold change (50 µM): -0.206

Target: RLF_Q13129_1591_THQMSSAYLEQQMENLVVCVK (UniProt Q13129)
- probe-labelled cysteine peptide fold change (10 µM): -0.0393
- probe-labelled cysteine peptide fold change (50 µM): 0.00406

Target: RNF114_Q9Y508_56_PVQVPCGHVFCSACLQECLKPK (UniProt Q9Y508)
- probe-labelled cysteine peptide fold change (10 µM): -0.12
- probe-labelled cysteine peptide fold change (50 µM): -0.0834

Target: RGS14_O43566-5_207_ALVLDQDCTVLADQEVR (UniProt O43566)
- probe-labelled cysteine peptide fold change (10 µM): 0.166
- probe-labelled cysteine peptide fold change (50 µM): 0.385

Target: RELCH_Q9P260_401_NEHFAIPAVCDSVQPPLDQLPHK (UniProt Q9P260)
- probe-labelled cysteine peptide fold change (10 µM): 0.0128
- probe-labelled cysteine peptide fold change (50 µM): -0.227

Target: RLF_Q13129_1015_LDAEPKPCSDTNSDSPDEGLDHNIHIK (UniProt Q13129)
- probe-labelled cysteine peptide fold change (10 µM): 0.0698
- probe-labelled cysteine peptide fold change (50 µM): -0.247

Target: RLF_Q13129_1642_TEHSHSPGDSSAPIQNTDCCHSSER (UniProt Q13129)
- probe-labelled cysteine peptide fold change (10 µM): 0.166
- probe-labelled cysteine peptide fold change (50 µM): -0.309

Target: RLF_Q13129_587_MHMEDGIYTCPVCIK (UniProt Q13129)
- probe-labelled cysteine peptide fold change (10 µM): -0.0254
- probe-labelled cysteine peptide fold change (50 µM): -0.0896

Target: RFTN1_Q14699_527_GPVQEDKGEQLSPGGLLCGVGVEGEAVQNGPASHSR (UniProt Q14699)
- probe-labelled cysteine peptide fold change (10 µM): -0.257
- probe-labelled cysteine peptide fold change (50 µM): -0.416

Target: RELCH_Q9P260_497_LSPAFHQALLSFCR (UniProt Q9P260)
- probe-labelled cysteine peptide fold change (10 µM): -0.134
- probe-labelled cysteine peptide fold change (50 µM): -0.026

Target: RIF1_Q5UIP0_1692_DSFDNCSLGESSK (UniProt Q5UIP0)
- probe-labelled cysteine peptide fold change (10 µM): 0.018
- probe-labelled cysteine peptide fold change (50 µM): -0.0276

Target: REEP5_Q00765_18_NCMTDLLAK (UniProt Q00765)
- probe-labelled cysteine peptide fold change (10 µM): -0.0793
- probe-labelled cysteine peptide fold change (50 µM): -0.0586

Target: RILPL2_Q969X0_161_SQLLVVQEELQCYK (UniProt Q969X0)
- probe-labelled cysteine peptide fold change (10 µM): -0.0621
- probe-labelled cysteine peptide fold change (50 µM): -0.111

Target: RDH13_Q8NBN7_75_CEAAAK (UniProt Q8NBN7)
- probe-labelled cysteine peptide fold change (10 µM): -0.00151
- probe-labelled cysteine peptide fold change (50 µM): 0.0619

Target: RNF138_Q8WVD3_34_TTACQHVFCR (UniProt Q8WVD3)
- probe-labelled cysteine peptide fold change (10 µM): -0.117
- probe-labelled cysteine peptide fold change (50 µM): -0.0135

Target: RMI1_Q9H9A7_406_SIFSVHCNVPLAHDFTNK (UniProt Q9H9A7)
- probe-labelled cysteine peptide fold change (10 µM): -0.0703
- probe-labelled cysteine peptide fold change (50 µM): -0.233

Target: RFC3_P40938_165_LILCCNSTSK (UniProt P40938)
- probe-labelled cysteine peptide fold change (10 µM): -0.0961
- probe-labelled cysteine peptide fold change (50 µM): 0.0194

Target: RNF126_Q9BV68_13+16_YFCHCCSVEIVPR (UniProt Q9BV68)
- probe-labelled cysteine peptide fold change (10 µM): -0.0221
- probe-labelled cysteine peptide fold change (50 µM): -0.0833
